From patent publication US12274732B2, “Anti-pathogen composition and methods of use thereof” (Tenfold Technologies, LLC, priority 2017, dated 2025)
Values after ≈ are worked out from the molar mass of the structure shown.

Tested on: Candida albicans
Experiment: In vitro antimicrobial activity against Candida albicans
Format: cell-based
Settings: Table 12, lowest concentration that allows no detectable growth, read-out: C. albicans MIC (minimum inhibitory concentration)
Experimental: Fifty organic extracts were prepared from 25 whole broth of four microbial strains (MS1479, MS2379, MS2820, and MS2414), which were fermented in different media for the antimicrobial testing. Note each whole broth culture generated one n-butanol extract from cultural supernatant and one methanol extract from cell pellets.
The antimicrobial activities of the 50 organic extracts were studied against three fungal pathogens—Candida albicans, Aspergillus fumigatus, and Cryptococcus neoformans—and five bacterial strains-Methicillin-resistant Staphylococcus aureus (MIRSA), Escherichia coli, Pseudomonas aeruginosa, Klebsiella pneumoniae, and Vancomycin-resistant Enterococcus faecium (VRE) (FIG. 2). The test concentrations for all extracts were in the range of 8-200 μg/mL (Table 3).
The antimicrobial activities of identified fusaricidins were in an in vitro study against several clinically relevant microbes. […] For the in-vitro assays against bacteria, fusaricidins were tested against methicillin-resistant Staphylococcus aureus, vancomycin-resistant Enterococcus faecium, Escherichia coli, and Pseudomonas aeruginosa using four antibacterial drugs methicillin, vancomycin, cefotaxime, and meropenem as controls. […]

Compound `OC(Cn1cncn1)(Cn1cncn1)c1ccc(F)cc1F` [Fluconazol] has an MIC of 1.6 µg/mL (≈ 5.22 µM).
